No constants are given. Whether binding was seen depends on the method and setting. For part of these data: Binding seen in cells or lysates may run through a third protein. Some entries that bind do so weakly or less than the wild type. Where a sequence is shown, tags or fusion partners need not be part of it.
T1: BmrD-His6 (YheH with a hexahistidine tag) (Bacillus subtilis) (UniProt O07549)
T1 sequence: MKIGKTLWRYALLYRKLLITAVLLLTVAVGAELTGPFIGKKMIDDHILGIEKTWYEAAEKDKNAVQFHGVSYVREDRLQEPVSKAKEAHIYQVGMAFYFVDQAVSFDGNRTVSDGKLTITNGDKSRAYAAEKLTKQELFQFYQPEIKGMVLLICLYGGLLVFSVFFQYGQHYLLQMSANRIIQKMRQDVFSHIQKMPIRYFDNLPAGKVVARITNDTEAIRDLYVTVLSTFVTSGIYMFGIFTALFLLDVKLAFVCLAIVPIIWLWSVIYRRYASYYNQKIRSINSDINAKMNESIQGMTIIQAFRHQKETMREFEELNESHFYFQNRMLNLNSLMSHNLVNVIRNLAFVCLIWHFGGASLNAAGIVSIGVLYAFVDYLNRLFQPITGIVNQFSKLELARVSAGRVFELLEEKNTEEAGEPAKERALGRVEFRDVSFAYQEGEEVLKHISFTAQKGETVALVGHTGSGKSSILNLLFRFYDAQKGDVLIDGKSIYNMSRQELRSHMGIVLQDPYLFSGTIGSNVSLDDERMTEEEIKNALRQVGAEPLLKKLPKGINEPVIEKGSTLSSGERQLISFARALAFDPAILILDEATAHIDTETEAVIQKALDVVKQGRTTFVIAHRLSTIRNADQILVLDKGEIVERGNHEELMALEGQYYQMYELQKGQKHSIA


Columns and labels:
[1] = target: T1, BmrD-His6 (YheH with a hexahistidine tag) (Bacillus subtilis); assay: pull-down; Ni2+ affinity chromatography by the His6 tag of BmrD only; membranes solubilised with 1% FC12 or 1% DDM; elution with 250 mM imidazole
[2] = target: T1, BmrD-His6 (YheH with a hexahistidine tag) (Bacillus subtilis); assay: AUC; sedimentation velocity, 20°C, 42000 rpm, in DDM; 0.85 mg/ml, diluted 4 times, or 0.11 mg/ml after SEC; both purified
[3] = target: T1, BmrD-His6 (YheH with a hexahistidine tag) (Bacillus subtilis); assay: SEC; Superdex 200 10/300 GL; 50 mM Tris-HCl pH 8, 150 mM NaCl, 10% glycerol, 5 mM beta-mercaptoethanol, 0.05% (w/v) DDM; protein purified by nickel affinity in DDM; both purified

binding [1]	binding [2]	binding [3]	Binder
binds			BmrC (YheI), untagged subunit (protein, UniProt O07550 1-585) MFSVLKKLGWFFKAYWLRYTIAIVLLLAVNVIEMFPPKLLGNAIDDMKAGAFTAEGLLFYIGIFFVLTAAVYIMSYFWMHQLFGGANLMEKILRTKLMGHLLTMSPPFYEKNRTGDLMARGTNDLQAVSLTTGFGILTLVDSTMFMMTIFLTMGFLISWKLTFAAIIPLPVMAIAISLYGSKIHERFTEAQNAFGALNDRVLESVSGVRVIRAYVQETNDVRRFNEMTADVYQKNMKVAFIDSLFEPTVKLLVGASYLIGLGYGAFLVFRNELTLGELVSFNVYLGMMIWPMFAIGELINVMQRGNASLDRVNETLSYETDVTDPKQPADLKEPGDIVFSHVSFTYPSSTSDNLQDISFTVRKGQTVGIAGKTGSGKTTIIKQLLRQYPPGEGSITFSGVPIQQIPLDRLRGWIGYVPQDHLLFSRTVKENILYGKQDATDKEVQQAIAEAHFEKDLHMLPSGLETMVGEKGVALSGGQKQRISIARALMANPEILILDDSLSAVDAKTEAAIIKNIRENRKGKTTFILTHRLSAVEHADLILVMDGGVIAERGTHQELLANNGWYREQYERQQLFTAEEGGAGA
	binds	binds	His6-BmrC (YheI with an N-terminal hexahistidine tag) (protein, UniProt O07550 1-585) MFSVLKKLGWFFKAYWLRYTIAIVLLLAVNVIEMFPPKLLGNAIDDMKAGAFTAEGLLFYIGIFFVLTAAVYIMSYFWMHQLFGGANLMEKILRTKLMGHLLTMSPPFYEKNRTGDLMARGTNDLQAVSLTTGFGILTLVDSTMFMMTIFLTMGFLISWKLTFAAIIPLPVMAIAISLYGSKIHERFTEAQNAFGALNDRVLESVSGVRVIRAYVQETNDVRRFNEMTADVYQKNMKVAFIDSLFEPTVKLLVGASYLIGLGYGAFLVFRNELTLGELVSFNVYLGMMIWPMFAIGELINVMQRGNASLDRVNETLSYETDVTDPKQPADLKEPGDIVFSHVSFTYPSSTSDNLQDISFTVRKGQTVGIAGKTGSGKTTIIKQLLRQYPPGEGSITFSGVPIQQIPLDRLRGWIGYVPQDHLLFSRTVKENILYGKQDATDKEVQQAIAEAHFEKDLHMLPSGLETMVGEKGVALSGGQKQRISIARALMANPEILILDDSLSAVDAKTEAAIIKNIRENRKGKTTFILTHRLSAVEHADLILVMDGGVIAERGTHQELLANNGWYREQYERQQLFTAEEGGAGA
